Assay results from PubChem BioAssay AID504408 (Broad Institute, 2011).
Out of some 300,000 compounds screened, about 5,200 (1.7%) were called active. The inconclusive results got no clear call from the source; some entries with a clear call stand among them for comparison.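 How the source made its calls: active means mean replicate activation of at least 50% with a set share of replicates each reaching 50%; inconclusive means only one of those two conditions met; inactive means mean below 50% and too few replicates reaching it.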

assay: HSF-1 activators, primary screen, NIH3T3-HGL cells, MG132 stress, luminescence, single point (AID 504408); conditions: NIH3T3-HGL HSF-1 luciferase reporter, MG132, 8 h; at 9 µM; active compounds read high; 100% = twice DMSO control signal;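 further: 0% = median of the neutral control wells and 100% = twice that signal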

| SMILES | activation |
| --- | --- |
| CCOC(=O)c1c(-c2ccccc2Cl)cn2ccccc12 | inconclusive: 50.9% |
| CCn1c(/C=C/c2ccccc2)nc2ccccc21 | inconclusive: 51.5% |
| Cc1ccc(NC(=O)CC(C)S(=O)(=O)c2ccc3c(c2)NC(=O)CO3)cc1C (stereo not drawn) | inactive: -3.69% |
| OC[C@H]1O[C@@H](n2cnc3c(NC4CCCC4)ncnc32)[C@H](O)[C@@H]1O | inactive: -15.4% |
| Cc1ccc(CNC(=O)[C@H](C)N2C(=O)N3CCc4c([nH]c5ccccc45)[C@@]3(C)C2=O)cc1 | active: 97.4% |
| CC1CCc2c(sc(/N=C/N(C)C)c2C#N)C1 (stereo not drawn) | inconclusive: 52% |
| O=C(Nc1cccc(Cl)c1)Nc1csc([N+](=O)[O-])c1 | inconclusive: 58% |
| COc1cc(NC(=O)CSc2nc(C)cs2)cc(OC)c1 | inactive: -85.5% |
| Cc1cc2cc(CCNC(=O)c3cccs3)c(=O)[nH]c2cc1C | active: 58.3% |
| N#Cc1nc(-c2cccs2)oc1NCCCN1CCOCC1 | inactive: 29.8% |
| Cc1ccc(C)c(CN2C(=O)COc3ccccc32)c1 | inconclusive: 53.3% |
| Cc1ccccc1/C=C1\OC(=O)c2ccccc21 | inactive: 46.5% |
| COc1ccc(C2CC(c3ccc4ccccc4c3)=NN2C(=O)COC(=O)C2CCC(=O)N2)cc1 (stereo not drawn) | inconclusive: 53.4% |
| COc1ccc(-c2csc(NC(=O)C3CCCO3)n2)cc1 (stereo not drawn) | inconclusive: 50.5% |
| CC(=O)Nc1ccc2c(c1)N(C(=O)CN(C)C)c1ccccc1CC2 | inconclusive: 50.7% |
| CC(NC(=O)c1cnccn1)c1ccc(S(N)(=O)=O)cc1 (stereo not drawn) | inactive: -11% |
| O=C1c2cccc3cccc(c23)C(=O)N1c1ccccc1Cl | inconclusive: 50.8% |
| CCN(C(=O)CN1C(=O)S/C(=C\c2cccc(Cl)c2)C1=O)C1CCS(=O)(=O)C1 (stereo not drawn) | inconclusive: 57.6% |
| Fc1cccc(Cl)c1CN1CCN(c2nc3ccccc3s2)CC1 | inactive: 15.9% |
| CCOC(=O)Cc1csc(NC(=O)c2c(O)c3ccccc3n(CC(C)C)c2=O)n1 | active: 55.9% |
| CCc1ccc(CN(C)C(=O)CCc2nc3ccccc3n(-c3ccc(OC)cc3)c2=O)cc1 | active: 70.3% |
| Cc1ccc(-c2csc(NC(=O)Cc3ccc(F)cc3)n2)o1 | inconclusive: 52.7% |
| COc1ccc(/C(C#N)=C/c2ccccn2)cc1 | active: 67.6% |
| FC(F)(F)c1cnc(-c2cnc(-c3ccncc3)nc2)c(Cl)c1 | inconclusive: 52.5% |

| SMILES | activation |
| --- | --- |
| C/C(=N\OCc1ccc(C#N)cc1)c1ccccc1 | inconclusive: 52.6% |
| CC1(C)c2cc(O)ccc2OC1N1CCOCC1 (stereo not drawn) | inconclusive: 50.4% |
| Cc1cccc(NC(=S)N(C)C)c1C | inactive: 2.36% |
| Cc1[nH][nH]c(=O)c1C(c1c(C)[nH][nH]c1=O)c1cn(Cc2ccc(Cl)c(Cl)c2)c2ccccc12 | inconclusive: 55.2% |
| O=C(Nc1ccc(F)cc1)c1cc2ccccc2o1 | inconclusive: 51.2% |
| S=c1nc(-c2ccccc2)oc2c1CCCC2 | inconclusive: 51.8% |
| C#Cc1cccc(NC(=O)c2ccc(Cl)cc2Cl)c1 | inconclusive: 52.2% |
| CC(CCc1ccccc1)NC(=O)CNC(=S)N(Cc1cccs1)C1CCCC1 (stereo not drawn) | inactive: 6.72% |
| C(=N\NC1=Nc2cccc3cccc1c23)/c1ccccc1 | inconclusive: 50.3% |
| Cc1ccc(/C=C/C(=O)Nc2ccc(Oc3ccccc3)cc2)o1 | inconclusive: 51.5% |
| O=C(CSc1c2c(nc3ccccc13)CCCC2)NCc1ccco1 | active: 86.5% |
| COc1ccccc1-n1ccnc(SCC(=O)NC2CCCC2)c1=O | inactive: -2.22% |
| Cc1cnc(C(=O)Nc2ccc3c(c2)CCC3)cn1 | inconclusive: 52.6% |
| CCOC(=O)c1c(C)[nH]c(N=Nc2ccc(C)cc2)c1C | inconclusive: 53.4% |
| C=C(C)CN(CC)C(=O)CCc1nnc(CCCc2ccccc2)o1 | inconclusive: 52.6% |
| CCCC(=O)Nc1ccccc1NC(=O)c1ccc(OCC)c(OCC)c1 | inactive: 18% |
| Cc1oc2c(c1C(=O)Nc1cccc3ccccc13)CCCC2 | inactive: 21.2% |
| CC(C)COc1ccc(C(=O)Nc2ccc(SC(F)F)cc2)cc1 | inconclusive: 51.5% |
| CCCCNC(=O)CSc1nc(CCC)nc2ccccc12 | inconclusive: 53.8% |
| COc1ccc(NC(=O)COc2cccc3c2CCN(Cc2cccnc2)C3=O)c(OC)c1 | inconclusive: 52.9% |
| Cc1[nH]c2ccccc2c(=O)c1C(=O)/C=C/c1ccccc1 | active: 86.7% |
| Cc1ccsc1/C=N/Nc1nc2ccccc2[nH]1 | active: 803% |
| COc1cc(/C=C(/C#N)c2ccccc2)ccc1Oc1ccc([N+](=O)[O-])cn1 | inactive: 28.6% |
| CCOC(=O)c1ccc(NC(=O)COc2ccc(S(=O)(=O)NC(C)C)cc2)cc1 | inconclusive: 52.2% |

5 records picked at random from the list so far:

| SMILES | activation |
| --- | --- |
| CC(=O)Nc1ccc2c(c1)N(C(=O)CN(C)C)c1ccccc1CC2 | inconclusive: 50.7% |
| Cc1oc2c(c1C(=O)Nc1cccc3ccccc13)CCCC2 | inactive: 21.2% |
| C#Cc1cccc(NC(=O)c2ccc(Cl)cc2Cl)c1 | inconclusive: 52.2% |
| COc1cc(/C=C(/C#N)c2ccccc2)ccc1Oc1ccc([N+](=O)[O-])cn1 | inactive: 28.6% |
| O=C(CSc1c2c(nc3ccccc13)CCCC2)NCc1ccco1 | active: 86.5% |

(more compounds)

| SMILES | activation |
| --- | --- |
| COc1ccccc1-c1cc(C(=O)N/N=C\c2cnn(C)c2C)c2ccccc2n1 | inconclusive: 51.8% |
| COC(=O)C(C(=O)OC)C(CC(=O)c1ccc(C)cc1)c1cc(OC)c(OC)c(OC)c1 (stereo not drawn) | inconclusive: 53.6% |
| Cc1ccc(NC(=O)c2cccs2)cc1[N+](=O)[O-] | inconclusive: 54.5% |
| Fc1cccc(NC(=S)NCc2ccccn2)c1 | inconclusive: 51.6% |
| CC(C)(C)NC(=O)c1ccc2c(c1)N(CC(=O)N1CCCC1)C(=O)C(C)(C)O2 | inactive: -9.21% |
| COc1ccc2sc(N(CCN(C)C)C(=O)/C=C/c3cccs3)nc2c1 | inconclusive: 51.3% |
| Cc1ccc(-c2nc(NCCCO)c3ccccc3n2)cc1 | inactive: -10.2% |
| CCc1nn(C(CC)C(=O)NCc2cccc(OC)c2OC)c(=O)c2cc3occc3n12 (stereo not drawn) | active: 66.8% |
| CC1(c2cccs2)CC(c2cccs2)=C(C#N)C(=O)N1 (stereo not drawn) | inconclusive: 52% |
| COc1ccccc1-c1nnc(-c2ccc(C)cc2)o1 | inconclusive: 54.5% |
| O=C(COc1ccc(S(=O)(=O)NC2CCCCC2)cc1Cl)Nc1ccc2c(c1)OCO2 | inconclusive: 50.4% |
| CCOc1ccc(NC(=O)c2csc3c2CCCC3)cc1 | inconclusive: 50.3% |
| Cc1ccccc1Cn1cc(S(=O)(=O)c2ccc(C(C)C)cc2)c(=O)c2cc3c(cc21)OCO3 | active: 78% |
| Cc1ccc(NC(=O)c2noc3c2CCc2ccccc2-3)cc1 | inconclusive: 52.1% |
| CC1Sc2ccc(S(=O)(=O)NCc3ccccc3)cc2NC1=O (stereo not drawn) | inactive: 5.53% |
| CCOC(=O)c1ccc(NC(=O)c2cc(C)nc3ccccc23)cc1 | inconclusive: 50.7% |
| O=C(c1ccc(Cl)c(S(=O)(=O)NCc2ccco2)c1)N1CCN(c2ccccc2F)CC1 | inconclusive: 50.1% |
| CC(C)(C)NC(=O)C(c1ccncc1)N(C(=O)Cn1nnc(-c2cccs2)n1)C1CCCCC1 (stereo not drawn) | inconclusive: 61.7% |
| CC(=O)Nc1ccc(NC(=O)/C(Cl)=C/c2ccccc2)cc1 | inconclusive: 50.3% |
| Cc1cc(C)cc(NC(=O)c2ccc([N+](=O)[O-])o2)c1 | inconclusive: 51% |
| COc1cc(SC)ccc1C(=O)Nc1cc(C)ccn1 | active: 55.7% |
| O=C(C1=C[C@H](c2csc3ccccc23)C[C@H](OCc2ccc(CO)cc2)O1)N1CCN(Cc2ccc3c(c2)OCO3)CC1 | inconclusive: 57% |
| O=C(Nc1ccccc1Cl)c1cc2ccccc2o/c1=N\O | active: 72.4% |
| O=C(CCC(=O)N1CCOc2ccccc21)NCCN1CCOCC1 | inactive: -10.4% |

| SMILES | activation |
| --- | --- |
| COc1ccc(C(CNC(=O)c2ccc(-c3ccccc3)cc2)N(C)C)cc1OC (stereo not drawn) | inactive: -4.56% |
| Cc1c(Cl)cccc1NC(=O)NC1CCCCC1 | inconclusive: 50% |
| O=C(Nc1ccccc1Cl)c1ccc([N+](=O)[O-])o1 | inconclusive: 58.1% |
| O=C(N/N=C/c1ccc([N+](=O)[O-])cc1)c1ccccc1OCc1ccccc1 | inconclusive: 50.5% |
| N#CC1=C(N)NC(SCc2ccc(F)cc2)=C(C#N)C12CCCCC2 | active: 166% |
| CCOC(=O)C1(Cc2ccccc2Cl)CCN(C(=O)c2cc(C)on2)CC1 | inconclusive: 50.9% |
| NC(=O)Cc1ccc2c(c1)[nH]c1ccccc12 | inconclusive: 57.1% |
| CCN(Cc1ccccc1)c1ccc(/C=N/NC(=S)NC(C)C)cc1 | inconclusive: 51.8% |
| COc1ccccc1/C=C/C=N/n1c(-c2cc(C)[nH]n2)n[nH]c1=S | inconclusive: 50.1% |
| CCOc1cc(C(=S)N2CCCCC2)ccc1OCC(=O)NCc1ccccc1 | inconclusive: 50.4% |
| CCCn1c(NC(=O)c2cccc(S(=O)(=O)N3CCCC3)c2)nc2ccccc21 | inactive: -52.4% |
| CCCCn1c(O)c(/C=C2\C=NN=C2c2ccccc2)sc1=S | inconclusive: 52.3% |
| CCOC(=O)N/N=C\c1ccccc1OC/C=C/c1ccccc1 | active: 55.5% |
| COC(=O)c1ccc(COc2ccccc2/C=C(\C#N)C(=O)Nc2c(C)cccc2C)cc1 | active: 148% |
| COc1ccc(OC2C(=O)N(c3cc(C)ccc3C)C2c2ccc(OC)c(OC)c2)cc1 (stereo not drawn) | inconclusive: 54.4% |
| COc1ccccc1NC(=O)CN1CCN(CC(=O)Nc2ccccc2Cl)CC1 | active: 243% |
| Cc1nn(Cc2ccccc2Cl)c(C)c1NC(=O)c1nc2ncccn2n1 | inconclusive: 52.3% |
| CC(C)Oc1ccc2c(c1)OC(c1ccccc1)(C(F)(F)F)NC2=O (stereo not drawn) | inconclusive: 52.4% |
| O=C(CCCC1=NS(=O)(=O)c2ccccc2N1)N1CCN(c2ccccc2)CC1 | inconclusive: 50.3% |
| O=C(NC1C2CC3CC(C2)CC1C3)C1CC1 (stereo not drawn) | inconclusive: 50.6% |
| COc1ccc(CCNC(=O)/C=C/C(=O)O)cc1 | inconclusive: 51.3% |
